Measurements reported in article PMC12410723, “Structure-function studies of Vibrio cholerae quorum-sensing receptor CqsR signal recognition” (PLOS Pathogens, 2025).

Tested on: CqsRp
Conditions: for Ethanolamine concentration in purified CqsRp: 103.3 μM CqsRp, after overexpression in E. coli and purification, average

## NCCO [Ethanolamine, ethanolamine]
103 µM purified CqsRp, single replicates
  Concentration: 81.2 mM and 85.0 mM and 85.6 mM
  Ethanolamine concentration in purified CqsRp: 83.9 ± 2.6 µM
Listed as ethanolamine
  Ethanolamine concentration in purified CqsRp: 83.9 µM

Where “and” joins values, the source holds several entries; their conditions need not be identical. Equal values may be shown once. Read-outs that look alike come from different tables or passages of the source.
